# Results as given in PMC4726734.
# Results are given in words; binding and its absence hold for the method and conditions named. In cells and extracts the contact can be indirect. Binding can be weak; no strength is given.
# Target: T1, GA-binding protein alpha subunit (GABPα) (human (endogenous in HDF-TERT)) (UniProt Q06546)
# T1 sequence: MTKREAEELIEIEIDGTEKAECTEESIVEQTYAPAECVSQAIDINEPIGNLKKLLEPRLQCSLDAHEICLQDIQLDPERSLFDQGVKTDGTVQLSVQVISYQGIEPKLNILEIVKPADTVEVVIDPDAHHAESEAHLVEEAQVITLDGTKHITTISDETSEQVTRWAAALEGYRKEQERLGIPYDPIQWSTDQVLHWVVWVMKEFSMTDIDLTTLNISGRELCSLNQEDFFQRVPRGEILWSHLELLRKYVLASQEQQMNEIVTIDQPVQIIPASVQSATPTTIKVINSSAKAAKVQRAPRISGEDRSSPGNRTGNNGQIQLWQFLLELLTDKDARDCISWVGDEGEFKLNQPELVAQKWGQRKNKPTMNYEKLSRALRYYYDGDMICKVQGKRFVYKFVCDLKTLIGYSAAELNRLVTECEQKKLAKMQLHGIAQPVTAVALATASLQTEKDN
# Experiment: co-IP
substance,measurement,value
GA-binding protein beta subunit (GABPβ) (human (endogenous in HDF-TERT)),binding,binds
